From paper PMC6815129
No constants are given. Whether binding was seen depends on the method and setting. Binding seen in cells or lysates may run through a third protein. Some results given as binding are weak or reduced against the parent protein; the word gives no strength. Sequences can lack the tags named with a protein. One block for each binder: values may come before it.

How the values were obtained:
[1] = biological target: T1, HA-RGA, full-length, in vitro translated (Arabidopsis thaliana) (UniProt Q9SLH3); test: pull-down; in vitro pull-down; Flag-GID1A, HA-RGA and cMyc-GI expressed separately in the TnT system; 7 µL each of GID1A and RGA extract with 0, 1.75, 3.5, 7, 15 or 28 µL of GI extract; immunoprecipitated with anti-Flag; 100 µM GA3 in the IP buffer
T1 sequence: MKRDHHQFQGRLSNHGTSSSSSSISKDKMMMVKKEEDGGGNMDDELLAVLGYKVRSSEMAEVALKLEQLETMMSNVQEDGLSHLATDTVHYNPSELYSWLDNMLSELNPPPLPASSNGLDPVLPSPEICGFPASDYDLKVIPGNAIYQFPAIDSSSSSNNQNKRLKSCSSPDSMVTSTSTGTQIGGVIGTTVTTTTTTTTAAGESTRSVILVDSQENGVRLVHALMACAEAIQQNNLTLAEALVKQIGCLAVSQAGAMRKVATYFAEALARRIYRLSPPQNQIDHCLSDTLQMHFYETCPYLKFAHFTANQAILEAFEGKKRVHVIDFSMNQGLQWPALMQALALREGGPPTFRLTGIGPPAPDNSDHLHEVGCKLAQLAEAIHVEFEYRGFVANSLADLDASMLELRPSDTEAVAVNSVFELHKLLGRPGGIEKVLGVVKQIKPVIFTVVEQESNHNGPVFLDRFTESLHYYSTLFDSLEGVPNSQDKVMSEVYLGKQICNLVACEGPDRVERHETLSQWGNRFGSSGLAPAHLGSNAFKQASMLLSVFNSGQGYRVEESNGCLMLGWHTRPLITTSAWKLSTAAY

[2] = biological target: T2, GFP–RGA expressed from an endogenous promoter fragment in transgenic Arabidopsis seedlings (Arabidopsis thaliana) (UniProt Q9SLH3); test: co-IP; 10-d-old SD-grown transgenic Arabidopsis seedlings expressing HA-GI and GFP–RGA, harvested at ZT8; modified SII buffer with 50 µM MG-132; immunoprecipitated with anti-GFP Ab290 and protein G Dynabeads, 4 °C
T2 sequence: T1 sequence

binding [1]: binds
B1: cMyc-GI, in vitro translated (protein, UniProt Q9SQI2 1-1173)
chain: MASSSSSERWIDGLQFSSLLWPPPRDPQQHKDQVVAYVEYFGQFTSEQFPDDIAELVRHQYPSTEKRLLDDVLAMFVLHHPEHGHAVILPIISCLIDGSLVYSKEAHPFASFISLVCPSSENDYSEQWALACGEILRILTHYNRPIYKTEQQNGDTERNCLSKATTSGSPTSEPKAGSPTQHERKPLRPLSPWISDILLAAPLGIRSDYFRWCSGVMGKYAAGELKPPTIASRGSGKHPQLMPSTPRWAVANGAGVILSVCDDEVARYETATLTAVAVPALLLPPPTTSLDEHLVAGLPALEPYARLFHRYYAIATPSATQRLLLGLLEAPPSWAPDALDAAVQLVELLRAAEDYASGVRLPRNWMHLHFLRAIGIAMSMRAGVAADAAAALLFRILSQPALLFPPLSQVEGVEIQHAPIGGYSSNYRKQIEVPAAEATIEATAQGIASMLCAHGPEVEWRICTIWEAAYGLIPLNSSAVDLPEIIVATPLQPPILSWNLYIPLLKVLEYLPRGSPSEACLMKIFVATVETILSRTFPPESSRELTRKARSSFTTRSATKNLAMSELRAMVHALFLESCAGVELASRLLFVVLTVCVSHEAQSSGSKRPRSEYASTTENIEANQPVSNNQTANRKSRNVKGQGPVAAFDSYVLAAVCALACEVQLYPMISGGGNFSNSAVAGTITKPVKINGSSKEYGAGIDSAISHTRRILAILEALFSLKPSSVGTPWSYSSSEIVAAAMVAAHISELFRRSKALTHALSGLMRCKWDKEIHKRASSLYNLIDVHSKVVASIVDKAEPLEAYLKNTPVQKDSVTCLNWKQENTCASTTCFDTAVTSASRTEMNPRGNHKYARHSDEGSGRPSEKGIKDFLLDASDLANFLTADRLAGFYCGTQKLLRSVLAEKPELSFSVVSLLWHKLIAAPEIQPTAESTSAQQGWRQVVDALCNVVSATPAKAAAAVVLQAERELQPWIAKDDEEGQKMWKINQRIVKVLVELMRNHDRPESLVILASASDLLLRATDGMLVDGEACTLPQLELLEATARAIQPVLAWGPSGLAVVDGLSNLLKCRLPATIRCLSHPSAHVRALSTSVLRDIMNQSSIPIKVTPKLPTTEKNGMNSPSYRFFNAASIDWKADIQNCLNWEAHSLLSTTMPTQFLDTAARELGCTISLSQ

binding [2]: binds
B2: HA-GI expressed from the 35S promoter in transgenic Arabidopsis seedlings (protein, UniProt Q9SQI2 1-1173)
chain: B1 chain
